Results: the supplement of paper PMC5662767
Where a name gives a salt, the structure may show the parent alone. The list shows a part of the results. Plates or batches differ in their baseline, so values are only roughly comparable.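 The clonal Drosophila S2 line carries Smoothened with a circularly permuted GFP inserted in its cytoplasmic tail, which fluoresces once Hh-driven phosphorylation opens an inhibitory loop. Per-cell fluorescence was read by flow cytometry, scaled to Hh-stimulated untreated cells. Hits were groups of inhibitors sharing pathway targets that shifted fluorescence consistently, not single compounds.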

Tested on: Drosophila S2 cl14 SmoIP sensor cells
Assay: normalized SmoIP GFP fluorescence (untreated unstimulated = 0%, untreated Hh-stimulated = 100%); higher = more Smo activation sensor fluorescence
Conditions: compound concentration: 15 uM, 24 h
[1] = stimulation: Hh conditioned medium (+Hh)
[2] = stimulation: mock conditioned medium (-Hh)

SMILES | normalized SmoIP GFP fluorescence [1] [%] | normalized SmoIP GFP fluorescence [2] [%]
CC[C@@]1(O)C(=O)OCc2c1cc1n(c2=O)Cc2cc3ccccc3nc2-1 [Camptothecine] | 51.7 | 5.98
CNCC(O)c1ccc(O)cc1 (centres undefined) [synephrine-hcl] | 132 | -15.6
Cc1sc2c(c1C)C(c1ccc(Cl)cc1)=N[C@@H](CC(=O)Nc1ccc(O)cc1)c1nnc(C)n1-2 | 158 | 26.5
CN1CCN(c2nc3ccccc3nc2Cl)CC1 | 123 | 2.46
C=CC[C@]1(O)CC[C@H]2[C@@H]3CCC4=CC(=O)CCC4=C3C=C[C@@]21C [altrenogest] | 133 | 5.47
CN1CCC(c2c[nH]c3ccc(O)cc23)CC1 | 113 | -1.51
CCCN1CCOC2c3cc(O)ccc3OCC21 (centres undefined) | 123 | -14.3
C[C@]12CC[C@H]3[C@@H](CC[C@@]45O[C@@H]4C(O)=C(C#N)C[C@]35C)[C@@H]1CC[C@@H]2O [Trilostane] | 157 | 16.8
CN1c2ccccc2C(NCCCCCCC(=O)O)c2ccc(Cl)cc2S1(=O)=O (centres undefined) [Tianeptine-sodium-salt] | 157 | 12.4
CCCN1C[C@H](CSC)C[C@@H]2c3cccc4[nH]cc(c34)C[C@H]21 [Pergolide-mesylate] | 167 | 28.5
C#C[C@]1(O)C=C[C@H]2[C@@H]3CCC4=CC(=O)CC[C@@H]4[C@H]3CC[C@@]21CC [Gestodene] | 154 | 14.5
CNCC(=O)c1ccc(O)c(O)c1 [adrenalone-hcl] | 121 | -0.889
Cc1cc(SCc2sc(-c3ccc(C(F)(F)F)c(F)c3)nc2C)ccc1OCC(=O)O | 109 | -0.151
CCN(C)C(=O)Oc1cccc([C@H](C)N(C)C)c1 [rivastigmine-tartrate-exelon] | 106 | -3.39
CN1[C@@H]2C[C@@H](OC(=O)[C@H](CO)c3ccccc3)C[C@H]1[C@@H]1O[C@@H]12 [Scopolamine-hydrobromide] | 134 | -20.3
C[N+](C)(C)CCCCCCCCCC[N+](C)(C)C [decamethonium-bromide] | 113 | 0.986

Two successive entries from above:
SMILES | normalized SmoIP GFP fluorescence [1] [%] | normalized SmoIP GFP fluorescence [2] [%]
CCN(C)C(=O)Oc1cccc([C@H](C)N(C)C)c1 [rivastigmine-tartrate-exelon] | 106 | -3.39
CN1[C@@H]2C[C@@H](OC(=O)[C@H](CO)c3ccccc3)C[C@H]1[C@@H]1O[C@@H]12 [Scopolamine-hydrobromide] | 134 | -20.3

The results go on.

SMILES | normalized SmoIP GFP fluorescence [1] [%] | normalized SmoIP GFP fluorescence [2] [%]
Cc1cccc([C@H](C)c2c[nH]cn2)c1C [dexmedetomidine] | 121 | 1.61
Cc1cccc(C)c1NC(=O)CN1CCCC1=O [Nefiracetam(Translon)] | 125 | -15.8
CCC(COC(=O)c1cc(OC)c(OC)c(OC)c1)(c1ccccc1)N(C)C (centres undefined) [trimebutine] | 161 | -6.16
CN1CCc2cc3c(cc2[C@H]1[C@@H]1OC(=O)c2c1ccc1c2OCO1)OCO3 [bicuculline] | 117 | -2.2
CCc1c(C(=O)C(N)=O)c2c(OCC(=O)O)cccc2n1Cc1ccccc1 | 131 | 9
O=C(O[C@H]1C[N+]2(CCCOc3ccccc3)CCC1CC2)C(O)(c1cccs1)c1cccs1 [aclidinium-bromide] | 112 | -4.58
COc1ccc(C(CN(C)C)C2(O)CCCCC2)cc1 (centres undefined) [Venlafaxine-hydrochloride] | 127 | 1.03
C[C@H]1CCC/C=C/[C@@H]2C[C@H](O)C[C@H]2[C@H](O)/C=C/C(=O)O1 [brefeldin-a] | 79.6 | -9.35
C[C@]12CC[C@H](O)CC1=CC[C@@H]1[C@@H]2CC[C@]2(C)C(=O)CC[C@@H]12 [Dehydroepiandrosterone(DHEA)] | 140 | -11.6
C[C@H]1CNCCc2ccc(Cl)cc21 [lorcaserin-hcl] | 121 | 7.58
C[C@@H]1O[C@@H](O[C@H]2C[C@@H](O)[C@]3(CO)[C@H]4[C@H](O)C[C@]5(C)[C@@H](C6=CC(=O)OC6)CC[C@]5(O)[C@@H]4CC[C@]3(O)C2)[C@H](O)[C@H](O)[C@H]1O [ouabain] | 101 | -4.47
N[C@@H]1C[C@H]1c1ccccc1 [tranylcypromine-2-pcpa-hcl] | 112 | 0.588
C[C@]12CCC(=O)C(O)=C1CC[C@@H]1[C@@H]2CC[C@]2(C)C(=O)CC[C@@H]12 [Formestane] | 119 | -1.34
C[C@]12N[C@H](Cc3ccccc31)c1ccccc12 [mk-801-maleate] | 116 | 1.1
COc1cc(-n2c(=S)[nH]c3ccccc3c2=O)c(Cl)cc1Cl [mdivi-1] | 114 | 5.87
[O-][n+]1ccccc1[S-].[O-][n+]1ccccc1[S-].[Zn+2] [zinc-pyrithione] | 114 | 36.3
